Data as given in PubChem BioAssay AID743121 (NCATS, 2013)

Screen: 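Knock-downs that sensitise breast cancer cells to camptothecin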 (primary screen)
System: MDA-MB-231 cells, a human breast cancer line
Reagent: single siRNA against human genes, 20 nM siRNA (0.8 pmol per well)
Time to read-out: 120 h (drug added 48 h after transfection, read 72 h later)
Treatment: camptothecin 20 nM (about EC30) for 72 h; vehicle 0.1% DMSO in parallel plates
Measurement: 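Cell viability by ATP luminescence (CellTiter-Glo) as % of non-targeting siRNA wells, and the log2 ratio of viability without drug over viability with camptothecin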
Direction: log2 vehicle/camptothecin viability: higher = stronger sensitisation to camptothecin; viability with camptothecin and viability without drug: higher = more viable cells
Active means: 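Each gene scored by redundant siRNA activity (RSA) over its individual siRNA ratios; a gene is called active at p < 0.001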
The whole screen tested about 26,000 reagents; below is a part drawn at random. 167 of all reagents (0.63%) count as active. 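Calls are per gene from RSA p-values that are not deposited; an individual active-marked siRNA can sensitise only weakly.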 A number with no mark means an inactive call. Reagents against one gene are numbered here.

gene knocked down,reagent,log2 vehicle/camptothecin viability,viability with camptothecin (% of control),viability without drug (% of control)
TRMT1 (tRNA methyltransferase 1),1,-0.122,86.5,79.5
TRMT1 (tRNA methyltransferase 1),2,-0.0938,39.5,37
TRMT1 (tRNA methyltransferase 1),3,0.238,54.7,64.5
DLGAP5 (DLG associated protein 5),1,-0.201,106,92.3
DLGAP5 (DLG associated protein 5),2,0.709,39.7,64.8
DLGAP5 (DLG associated protein 5),3,0.0753,84.8,89.3
DLGAP5 (DLG associated protein 5),4,0.0206,77.1,78.2
DLGAP5 (DLG associated protein 5),5,-0.259,106,88.7
DLGAP5 (DLG associated protein 5),6,-0.122,66.8,61.4
RHBDD3 (rhomboid domain containing 3),1,-0.191,69.4,60.8
RHBDD3 (rhomboid domain containing 3),2,-0.0889,111,104
RHBDD3 (rhomboid domain containing 3),3,-0.0656,104,99
RHBDD3 (rhomboid domain containing 3),4,0.0372,90.5,92.8
PRKCE (protein kinase C epsilon),1,-0.253,98.1,82.3
PRKCE (protein kinase C epsilon),2,-0.0206,93.2,91.9
PRKCE (protein kinase C epsilon),3,0.114,62.6,67.7
PRKCE (protein kinase C epsilon),4,-0.114,55.1,50.9
NPHP1 (nephrocystin 1),1,-0.412,74.5,56
NPHP1 (nephrocystin 1),2,-0.0378,102,98.9
NPHP1 (nephrocystin 1),3,-0.236,105,88.9
NPHP1 (nephrocystin 1),4,-0.171,80.7,71.7
CYP4F8 (cytochrome P450 family 4 subfamily F member 8),1,-0.441,82.3,60.6
CYP4F8 (cytochrome P450 family 4 subfamily F member 8),2,0.107,56.5,60.9
CYP4F8 (cytochrome P450 family 4 subfamily F member 8),3,-0.225,71.3,61
CYP4F8 (cytochrome P450 family 4 subfamily F member 8),4,-0.22,120,103
NKX2-1 (NK2 homeobox 1),1,-0.00209,77,76.9
NKX2-1 (NK2 homeobox 1),2,1.54,11.7,33.9
NKX2-1 (NK2 homeobox 1),3,0.00577,19.6,19.7
NKX2-1 (NK2 homeobox 1),4,-0.379,53.1,40.9
NFKBIE (NFKB inhibitor epsilon),1,-0.294,54,44
NFKBIE (NFKB inhibitor epsilon),2,-0.265,76.2,63.5
NFKBIE (NFKB inhibitor epsilon),3,0.535,8.42,12.2
CDC25C (cell division cycle 25C),1,-0.0753,90.3,85.7
CDC25C (cell division cycle 25C),2,-0.293,116,94.4
CDC25C (cell division cycle 25C),3,-0.15,71.8,64.7
CDC25C (cell division cycle 25C),4,0.0948,67.5,72.1

Continued (3 carried over from the part before).
gene knocked down,reagent,log2 vehicle/camptothecin viability,viability with camptothecin (% of control),viability without drug (% of control)
CDC25C (cell division cycle 25C),2,-0.293,116,94.4
CDC25C (cell division cycle 25C),3,-0.15,71.8,64.7
CDC25C (cell division cycle 25C),4,0.0948,67.5,72.1
CYP2U1 (cytochrome P450 family 2 subfamily U member 1),1,-0.0487,94.1,91
CYP2U1 (cytochrome P450 family 2 subfamily U member 1),2,-0.192,55.7,48.8
CYP2U1 (cytochrome P450 family 2 subfamily U member 1),3,0.604,30.2,45.8
CYP2U1 (cytochrome P450 family 2 subfamily U member 1),4,-0.534,28,19.3
PGBD1 (piggyBac transposable element derived 1),1,-0.0094,51.6,51.3
PGBD1 (piggyBac transposable element derived 1),2,-0.509,40.2,28.3
PGBD1 (piggyBac transposable element derived 1),3,-0.481,33.1,23.7
PGBD1 (piggyBac transposable element derived 1),4,0.145,52.5,58
SH3KBP1 (SH3 domain containing kinase binding protein 1),1,-0.0217,55.5,54.6
SH3KBP1 (SH3 domain containing kinase binding protein 1),2,0.125,99.6,109
SH3KBP1 (SH3 domain containing kinase binding protein 1),3,-0.0446,130,126
SH3KBP1 (SH3 domain containing kinase binding protein 1),4,0.143,104,115
UNC5C (unc-5 netrin receptor C),1,-0.00967,93.6,92.9
UNC5C (unc-5 netrin receptor C),2,-0.312,68.4,55.1
UNC5C (unc-5 netrin receptor C),3,-0.219,85.4,73.3
UNC5C (unc-5 netrin receptor C),4,-0.335,99.4,78.8
PAICS,1,0.099,99.7,107
PAICS,2,-0.203,66.7,58
PAICS,3,-0.254,109,91.1
MCEMP1 (mast cell expressed membrane protein 1),1,-0.042,86.9,84.4
MCEMP1 (mast cell expressed membrane protein 1),2,-0.637,45.1,29
MCEMP1 (mast cell expressed membrane protein 1),3,0.0992,81.8,87.6
MCEMP1 (mast cell expressed membrane protein 1),4,-0.393,33,25.2
TRIM5 (tripartite motif containing 5),1,-0.535,136,93.5
TRIM5 (tripartite motif containing 5),2,-0.277,64.2,53
TRIM5 (tripartite motif containing 5),3,-0.00947,73,72.5
SLIT1 (slit guidance ligand 1),1,-0.206,89.1,77.2
SLIT1 (slit guidance ligand 1),2,-0.657,92,58.4
SLIT1 (slit guidance ligand 1),3,0.886,26.8,49.5
SLIT1 (slit guidance ligand 1),4,0.0756,80.1,84.4
CD300LF (CD300 molecule like family member f),1,-0.112,68.3,63.2
CD300LF (CD300 molecule like family member f),2,-0.199,80.4,70
CD300LF (CD300 molecule like family member f),3,-0.316,52.7,42.3
CD300LF (CD300 molecule like family member f),4,0.265,31.2,37.5
